For one molecule, binding results are on record in article PMC9701195, “Structural basis for lipid and copper regulation of the ABC transporter MsbA” (Nature Communications, 2022).

Results are given in words; binding and its absence hold for the method and conditions named. Some entries that bind do so weakly or less than the wild type.

For this assay, the target named is MsbA (ATP-binding cassette transporter MsbA, Escherichia coli) (Escherichia coli) (UniProt P60752). The assay is described as follows: cryo-EM structure; 8 mg/mL copper-loaded MsbA, apo or trapped with ADP-vanadate, in 200 mM NaCl, 20 mM HEPES pH 7.4, 2x CMC C10E5, two-fold molar excess of KDL; C2 symmetry imposed (3.6 Å trapped; 3.88 Å open, 4.06 Å with C1); both purified.

B1: MsbA (ATP-binding cassette transporter MsbA, Escherichia coli) (natural protein)
chain: HNDKDLSTWQTFRRLWPTIAPFKAGLIVAGVALILNAASDTFMLSLLKPLLDDGFGKTDRSVLVWMPLVVIGLMILRGITSYVSSYCISWVSGKVVMTMRRRLFGHMMGMPVSFFDKQSTGTLLSRITYDSEQVASSSSGALITVVREGASIIGLFIMMFYYSWQLSIILIVLAPIVSIAIRVVSKRFRNISKNMQNTMGQVTTSAEQMLKGHKEVLIFGGQEVETKRFDKVSNRMRLQGMKMVSASSISDPIIQLIASLALAFVLYAASFPSVMDSLTAGTITVVFSSMIALMRPLKSLTNVNAQFQRGMAACQTLFTILDSEQEKDEGKRVIERATGDVEFRNVTFTYPGRDVPALRNINLKIPAGKTVALVGRSGSGKSTIASLITRFYDIDEGEILMDGHDLREYTLASLRNQVALVSQNVHLFNDTVANNIAYARTEQYSREQIEEAARMAYAMDFINKMDNGLDTVIGENGVLLSGGQRQRIAIARALLRDSPILILDEATSALDTESERAIQAALDELQKNRTSLVIAHRLSTIEKADEIVVVEDGVIVERGTHNDLLEHRGVYAQLHKMQFGQ
notes: MsbA, Escherichia coli, UniProt P60752; msbA gene amplified from E. coli genomic DNA into pCDF-1b (pCDF-MsbA), N-terminal TEV-cleavable His6; Homodimer; co-purifies with copper(II), one site per subunit at the N-terminus (Met-His-Asn-Asp); For cryo-EM it was loaded with copper(II), apo or trapped with ADP-vanadate, with KDL; also called wild-type MsbA; the transporter; source: E. coli (DE3) …
Consider B1, for which the binding result is recorded as “binds”.
